Results deposited as PubChem BioAssay AID1259254 (NCATS, 2017).

Assay: 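Genome-wide screen for genes that prevent DNA re-replication in cancer cells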 (primary screen)
System: human HCT116 colorectal cancer cells
Reagent: single siRNA against human genes
Timing: 3 days
Read-out: 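Imaged Hoechst DNA stain sorts each cell into a cycle phase by DNA amount; per plate, G2 fraction set to 0% for non-targeting and 100% for GMNN siRNA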
Scale: G2 robust z-score: higher = more G2 cells, more excess DNA replication
Active means: 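Active siRNAs have a G2 robust z of 5 or more median absolute deviations over the median, which in these data means about 38% or higher of GMNN control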
The whole screen tested about 59,000 reagents; this is a random part of them. About 1,550 of all reagents (2.6%) count as active. 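G2 share is only a proxy for re-replication; each gene was hit by three separate siRNAs, and active genes were retested.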 Further read-outs or replicates are left out here. No sequences are given here. Not given: the amount of reagent.

With knock-down of PTPN20 (GeneID 26095) [SID160737618], the screen gave G2 robust z-score -0.0474; inactive.
With knock-down of PTPN20 (GeneID 26095) [SID160737619] the results were G2 robust z-score -0.146; inactive.
For PTPN20 (GeneID 26095) [SID160737621] the deposit lists G2 robust z-score 0.0962; inactive.
Against PTPN20 (GeneID 26095) [SID160770927], the values are G2 robust z-score -0.928; inactive.
Against PTPN20 (GeneID 26095) [SID160770928] the deposit lists G2 robust z-score -1.53; inactive.
Knock-down of PTPN20 (GeneID 26095) [SID160770930] gave: G2 robust z-score -0.138; inactive.
For CCDC102B (GeneID 79839) [SID160749570] the deposit lists G2 robust z-score -0.0161; inactive.
CCDC102B (GeneID 79839) [SID160749571] showed G2 robust z-score -0.0523; inactive.
For CCDC102B (GeneID 79839) [SID160749572], the values are G2 robust z-score 3.15; inactive.
EIF1AY (GeneID 9086) [SID160721437] gave G2 robust z-score -0.28; inactive.
After knock-down of EIF1AY (GeneID 9086) [SID160721438], the screen gave G2 robust z-score -1.11; inactive.
EIF1AY (GeneID 9086) [SID160721439] showed G2 robust z-score 1.94; inactive.
With knock-down of CHML (GeneID 1122) [SID160742895] the results were G2 robust z-score -0.978; inactive.
Against CHML (GeneID 1122) [SID160742906], the entry reads G2 robust z-score 1.37; inactive.
CHML (GeneID 1122) [SID160742917] scored G2 robust z-score 1.71; inactive.
After knock-down of HACD1 (GeneID 9200) [SID160721700], the record shows G2 robust z-score -0.638; inactive.
HACD1 (GeneID 9200) [SID160721701] gave G2 robust z-score -0.97; inactive.
After knock-down of HACD1 (GeneID 9200) [SID160721702], the record shows G2 robust z-score -0.871; inactive.
Knock-down of ZNF143 (GeneID 7702) [SID160719180] resulted in: G2 robust z-score -0.736; inactive.
Against ZNF143 (GeneID 7702) [SID160719181] the deposit lists G2 robust z-score -0.893; inactive.
ZNF143 (GeneID 7702) [SID160719182] showed G2 robust z-score 1.32; inactive.
RAB6C (GeneID 84084) [SID160724605] scored G2 robust z-score -1.02; inactive.
For RAB6C (GeneID 84084) [SID160751711] the deposit lists G2 robust z-score 2.05; inactive.
Knock-down of RAB6C (GeneID 84084) [SID160751713] came out at: G2 robust z-score -0.585; inactive.
Against FAM114A1 (GeneID 92689) [SID160754335], the values are G2 robust z-score -0.287; inactive.
After knock-down of FAM114A1 (GeneID 92689) [SID160754336], the record shows G2 robust z-score 0.669; inactive.
Silencing of FAM114A1 (GeneID 92689) [SID160754337] gave: G2 robust z-score -0.287; inactive.
Against KRT18P55 (GeneID 284085) [SID160763154] the deposit lists G2 robust z-score 1.25; inactive.
With knock-down of KRT18P55 (GeneID 284085) [SID160763155] the results were G2 robust z-score -0.218; inactive.
Against KRT18P55 (GeneID 284085) [SID160763156] the deposit lists G2 robust z-score 0.157; inactive.

Reprinted from above, 3 entries:
RAB6C (GeneID 84084) [SID160724605]: G2 robust z-score = -1.02; Call = inactive
RAB6C (GeneID 84084) [SID160751711]: G2 robust z-score = 2.05; Call = inactive
RAB6C (GeneID 84084) [SID160751713]: G2 robust z-score = -0.585; Call = inactive
